Results as given in PubChem BioAssay AID540256 (National Center for Advancing Translational Sciences (NCATS), 2011).
About 3,700 (1.2%) of roughly 300,000 compounds were called active. Inconclusive means that the source gave no clear call. Such entries were picked first, then a sample of the others. Calls follow the shape of the full dose curve; tested in HEK293 cells. Where the call is inconclusive, the potency comes from a doubtful curve fit.

assay: qHTS for Inhibitors of binding or entry into cells for Lassa Virus; conditions: Lassa virus pseudotype entry inhibition, cell reporter; series mostly up to 37.9 µM; also: nearly all actives have a fitted effect of over 50% in size
Potency is read from the fitted curve at half-maximal effect.

SMILES | Potency
COc1ccc(CN(C(=S)Nc2ccccc2)C2CC(=O)N(c3ccc(Cl)cc3)C2=O)cc1 (stereo unspecified) | inconclusive: 35.5 µM [inhibitor, single point]
CC12CC(c3ccccc3O1)N(C(=O)c1ccco1)C(=O)N2c1ccccc1 (stereo unspecified) | inactive
Nc1c(-c2cccc(Cl)c2)cnc2c(-c3ccccc3)cnn12 | inconclusive: 0.562 µM [activator, full curve, poor fit]
C=C(c1ccc2nc(NC(=O)OC)[nH]c2c1)c1cccs1 | inconclusive: 5.01 µM [inhibitor, partial curve, poor fit]
S=C(NCc1ccco1)N/N=C/c1ccccc1Cl | inconclusive: 9.2 µM [inhibitor, partial curve]
CSCCC(NC(=O)c1ccccc1)C(=O)N(C)CC(=O)Nc1ccc(N2CCOCC2)cc1 (stereo unspecified) | inactive
Cn1nc(-c2ccc(C(=O)Nc3cccc(Cl)c3)cc2)c2ccccc2c1=O | inconclusive: 3.66 µM [inhibitor, partial curve, poor fit]
COc1ccc(NC(=O)c2cc(C)n(Cc3cccs3)c2C)cc1 | inconclusive: 20 µM [inhibitor, single point]
Cc1ccc(NC2=Nc3ccccc3N3C2=Nc2c(c(C)nn2-c2ccccc2)C3c2ccc(O)c(O)c2)cc1 (stereo unspecified) | inconclusive: 12.6 µM [inhibitor, single point]
COc1ccc(N2C(=O)/C(=C/c3cccs3)C(=O)NC2=S)cc1 | inactive
Cc1cccc(C(=O)NNC(=O)c2c(-c3ccccc3Cl)noc2C)c1O | inactive
Cc1nnc(SCC(=O)Nc2ccc3c(c2)OCO3)s1 | inactive
O=C(N/N=C/c1cccc(F)c1)c1cc(-c2ccco2)nc2ccccc12 | inactive
O=C(COC(=O)c1ccccc1O)Nc1ccc2ccccc2c1 | inconclusive: 20 µM [activator, single point]
COCCCNC(=O)c1ccc(CS(=O)(=O)c2ccccc2C)o1 | inactive
COC(=O)c1[nH]c2c(c1C)C(=O)CC(c1cccs1)C2 (stereo unspecified) | inconclusive: 0.562 µM [inhibitor, full curve]
CCC(C)OC(=O)n1ccc(C(=O)Nc2nccs2)n1 (stereo unspecified) | inactive
CCOC(=O)c1[nH]c(CSc2nnc(-c3ccc(OC)cc3)o2)c(C(=O)OCC)c1C | inactive
COC(=O)N/N=C\c1c(C)nn(-c2ccccc2)c1Cl | inactive
CCC(=O)NNc1ncnc2c1cnn2-c1ccc(C)c(Cl)c1 | inconclusive: 11.2 µM [activator, partial curve]
CO/N=C/C(=N\Nc1ccc(C)cc1)C(=O)c1ccc(OC)cc1 | inconclusive: 4.47 µM [inhibitor, partial curve]
COc1ccc(NS(=O)(=O)c2ccc(N3CCOCC3)c(NC(=O)c3cccc(F)c3)c2)cc1 | inconclusive: 13 µM [inhibitor, partial curve, poor fit]
Fc1ccc(-c2ncn(CCCN3CCOCC3)c2-c2ccncc2)cc1 | inconclusive: 0.0031 µM [activator, full curve, poor fit]

2 compounds picked at random from the list so far, as already listed:
SMILES | Potency
CCC(C)OC(=O)n1ccc(C(=O)Nc2nccs2)n1 (stereo unspecified) | inactive
COC(=O)N/N=C\c1c(C)nn(-c2ccccc2)c1Cl | inactive

Further entries follow:

SMILES | Potency
COc1cccc(CNc2nnnn2C)c1OC | inconclusive: 31.6 µM [activator, single point]
O=C(/C=C/c1ccc(-c2ccccc2)cc1)NCc1cccnc1 | inactive
CCC(=O)C1=C(c2ccc(F)cc2)N(C(=O)CC)n2c(nnc2-c2ccc(OC)cc2)S1 | inconclusive: 0.631 µM [inhibitor, full curve]
COc1ccc(-c2cnc(C)o2)cc1S(=O)(=O)Nc1ccc(NC(C)=O)cc1 | inconclusive: 1.58 µM [activator, partial curve, poor fit]
Cc1ccc(CSc2ccc3nnc(-c4cccnc4)n3n2)cc1 | inactive
O=C(CSc1nc2ccccc2c(=O)n1-c1ccccc1)N1CCCc2ccccc21 | inconclusive: 14.1 µM [inhibitor, single point]
CN(CCC#N)C(=O)COC(=O)c1ccc2[nH]c3c(c2c1)CCCC3 | inconclusive: 4.47 µM [inhibitor, full curve, poor fit]
Cc1ccc(C(=O)CSc2nnc3c4ccccc4nc(C(C)(C)C)n23)cc1 | inconclusive: 4.47 µM [inhibitor, full curve, poor fit]
COc1ccc(S(=O)(=O)N(C)CC(=O)NCCCn2ccnc2)cc1Cl | inactive
CCC(=NCC1CCCO1)c1c(O)n(Cc2ccccc2)c(=O)[nH]c1=O (stereo unspecified) | active: 1.64 µM
Cc1nc2ccccc2c(=O)n1/N=C/c1ccc(O)cc1O | inactive
CC(C(=O)c1ccc(-c2ccccc2)cc1)[n+]1ccccc1 (stereo unspecified) | inconclusive: 11.2 µM [inhibitor, partial curve, poor fit]
COC(=O)c1sc(NC(=S)NC(=O)c2ccccc2)nc1C | inconclusive: 4.47 µM [activator, partial curve]
CCc1nc(N2CCN(C(=O)c3ccccc3)CC2)c(C#N)c2c1COC(C)(C)C2 | inconclusive: 8.91 µM [inhibitor, partial curve, poor fit]
CC(=O)c1cccc(NC(=S)NC(=O)c2cccc(Cl)c2)c1 | inactive
O=[N+]([O-])c1cc(-c2cnc3ccccc3n2)ccc1Oc1ccc(Br)cc1 | inactive
Cc1ccc(C)c(NC(=O)CN(C)C(=O)[C@@H](NC(N)=O)C(C)C)c1 | inactive
CCOC(=O)c1cnc(-n2nc(C)cc2C)nc1Nc1cccc(C(C)=O)c1 | inconclusive: 18.3 µM [activator, partial curve, poor fit]
Cc1cc(C)cc(N(C(=O)c2ccccn2)C(C(=O)NC2CCCCC2)c2cccs2)c1 (stereo unspecified) | inactive
COc1cc(C(=O)NC(=S)NNC(=O)c2ccc3c(c2)OCO3)cc(OC)c1OC | inconclusive: 20 µM [inhibitor, single point]
COCCn1nnnc1C(C(C)C)N1CCC(Cc2ccccc2)CC1 (stereo unspecified) | inconclusive: 16.4 µM [inhibitor, single point]
Cn1c(SCC(=O)NCCNC(=O)CSc2nnc(C(F)(F)F)n2C)nnc1C(F)(F)F | inconclusive: 1.12 µM [activator, single point]
Cc1cc(C(=O)CSc2nnnn2C)c(C)n1-c1cccc(F)c1 | inconclusive: 32.6 µM [inhibitor, single point]
